What all share (assay): pull-down; 10 µg GST-TTC4 (wild type or mutant) on glutathione beads with 6 µg HSP90; 10 mM Tris pH 7.5, 150 mM NaCl, 0.1% triton X100; 1 hour at 4°C; Coomassie stained gel; both purified
Test [1] deals with T1, R156E GST-TTC4 mutant (human) (UniProt O95801).
T1 sequence: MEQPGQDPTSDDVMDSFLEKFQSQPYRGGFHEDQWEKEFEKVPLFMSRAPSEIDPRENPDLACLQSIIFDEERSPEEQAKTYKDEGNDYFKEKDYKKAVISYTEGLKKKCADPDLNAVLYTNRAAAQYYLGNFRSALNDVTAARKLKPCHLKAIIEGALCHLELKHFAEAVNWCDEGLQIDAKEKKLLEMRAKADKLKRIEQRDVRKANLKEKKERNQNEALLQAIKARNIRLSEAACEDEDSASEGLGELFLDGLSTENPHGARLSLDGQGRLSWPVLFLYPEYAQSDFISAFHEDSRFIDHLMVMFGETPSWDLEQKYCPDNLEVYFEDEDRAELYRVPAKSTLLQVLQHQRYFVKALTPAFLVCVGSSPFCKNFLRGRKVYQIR

Test [2] deals with T2, K152E, R156E GST-TTC4 mutant (human) (UniProt O95801).
T2 sequence: T1 sequence with K152E

In test [3] the target is T3, K152E GST-TTC4 mutant (human) (UniProt O95801).
T3 sequence: T1 sequence with K152E, E156R

The target in test [4] is T4, GST-TTC4 wild type (human) (UniProt O95801).
T4 sequence: T1 sequence with E156R

Substitutions are numbered along the chain they refer to. These are yes or no findings as the source states them, for the method shown. For some of these results: Binding can be weak; no strength is given. Sequences can lack the tags named with a protein.

In the case of purified HSP90 (human), the binding result is “no binding (tested: 6 µg of HSP90 with 10 µg of GST-TTC4)” in test [1], “no binding (tested: 6 µg of HSP90 with 10 µg of GST-TTC4)” in test [2], “no binding (tested: 6 µg of HSP90 with 10 µg of GST-TTC4)” in test [3] and “binds” in test [4].

The values are drawn from article PMC2253824.
